Measurements: PubChem BioAssay AID504834 (National Center for Advancing Translational Sciences (NCATS), 2011)
Screen size: about 320,000 compounds; about 22,000 (6.9%) were called active. The shares of active, inactive and inconclusive entries below differ from those in the screen. Calls follow the shape of the dose curve; as a rule, active = well fitted inhibition curve with a large enough effect; inconclusive = small, poorly fitted or top-dose-only effect, or another doubt; inactive = no such curve, though single readings can be large or run the other way. Where the call is inconclusive, the potency comes from a doubtful curve fit.

assay: Primary qHTS for delayed death inhibitors of the malarial parasite plastid, 96 hour incubation; settings: P. falciparum luciferase reporter growth; series mostly up to 28.7 µM; activity change, negative = inhibition: at the top concentration
In short: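 Cell-based qHTS: luciferase-tagged P. falciparum in erythrocytes (2% hematocrit, 0.05% parasitemia final) incubated with compounds for 96 hours, 37 C, 5% CO2; luciferase detection reagent then added and luminescence measured.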
% is scaled to controls: 0 for no effect and ±100 for the full control effect; potency is read from the fitted curve at half-maximal effect.

Q: For `CNC(=O)c1[nH]cnc1C(=O)N[C@@H](Cc1ccccc1)C(=O)OCc1ccccc1`, which “activity change, negative = inhibition” value is on record?
A: inactive: 68.5%

Q: For `O=c1c([N+](=O)[O-])c(O)c2ccccc2n1Cc1ccccc1`, which Potency is on record?
A: inconclusive: 2.94 µM [inhibitor, full curve]

Q: With `COc1cc(CNC(=O)C2CCC(=O)N(C3CCCCCC3)C2)cc(OC)c1` (stereo not given) as the compound, how does the Potency read?
A: inconclusive: 11.7 µM [inhibitor, partial curve, poor fit]

Q: With `Cc1nc(SCC(=O)c2ccccc2)c([N+](=O)[O-])[nH]1` as the compound, how does the Potency read?
A: inconclusive: 3.29 µM [inhibitor, single point]

Q: Which “activity change, negative = inhibition” value does the source give for `CN(C)S(=O)(=O)N1CCC(n2nccc2NC(=O)CCc2ccccc2)CC1` here?
A: inactive: 25.4%

Q: With `CCn1c(SCC(=O)N2CCOCC2)nnc1-c1ccco1` as the compound, how does the Potency read?
A: inconclusive: 18.5 µM [inhibitor, partial curve, poor fit]

Q: For `Cc1onc(-c2ccccc2)c1C(=O)Nc1cc(C(F)(F)F)ccc1N1CCOCC1`, which “activity change, negative = inhibition” value is on record?
A: inactive: -8.94%

Q: Which “activity change, negative = inhibition” value does the source give for `CN1CCSc2ccc(C(=O)Nc3ccc(Cl)cc3)cc21` here?
A: inactive: 137%

Q: For `COc1ccc(C=O)cc1COc1ccc([N+](=O)[O-])c(C)c1`, which “activity change, negative = inhibition” value is on record?
A: inactive: 18.3%

Q: With `O=[N+]([O-])c1cccc(CN2CCN(Cc3ccc(Br)cc3)CC2)c1` as the compound, how does the Potency read?
A: inconclusive: 2.94 µM [inhibitor, full curve]

Q: Which Potency does the source give for `CNC(=S)/N=C(\Nc1ccc(C)cc1)c1ccccc1` here?
A: inconclusive: 18.5 µM [inhibitor, single point]

Q: For `CCCCNC(=O)CN1CCC2(O)CCCCC2C1c1ccccc1OC` (stereo not given), which Potency is on record?
A: inconclusive: 11.7 µM [inhibitor, single point]

Q: Which Potency does the source give for `Cc1ccc(OCC(=O)NNC(=O)c2ccc(NC(=O)C3CC3)cc2)c(C)c1` here?
A: inconclusive: 18.5 µM [inhibitor, single point]

Q: With `COc1ccc2c(CC(=O)NCc3cccs3)coc2c1` as the compound, how does the Potency read?
A: inconclusive: 18.5 µM [inhibitor, single point]

Q: For `Cc1ccc2cc(CNC(C)C)c(=O)[nH]c2c1`, which Potency is on record?
A: active: 5.22 µM

Q: With `COC(=O)CSc1nc(C)c(Oc2ccccc2)c(=O)[nH]1` as the compound, how does the Potency read?
A: inconclusive: 10.4 µM [inhibitor, partial curve, poor fit]

Q: With `Cc1cc(-n2c(C)cc(C(=O)COc3ccccc3[N+](=O)[O-])c2C)no1` as the compound, how does the Potency read?
A: inconclusive: 0.522 µM [inhibitor, full curve, poor fit]

Q: Which Potency does the source give for `Cc1cccc(NC(=O)CNC(=O)Cc2ccc3c(c2)OCCO3)c1C` here?
A: inconclusive: 0.147 µM [inhibitor, full curve, poor fit]

Q: Which Potency does the source give for `O=C(NCCCN1CCOCC1)c1cc2c([nH]c3ccccc32)c(-c2cccc(Br)c2)n1` here?
A: active: 3.29 µM

Q: Which “activity change, negative = inhibition” value does the source give for `O=C(CN(C(=O)CCC(=O)Nc1nccs1)c1ccc(F)cc1)NCc1ccc2c(c1)OCO2` here?
A: inactive: 45.9%

Q: Which “activity change, negative = inhibition” value does the source give for `Cc1nc(C)c(C(=O)N/N=C/c2ccco2)s1` here?
A: inactive: 9.69%

Q: With `O=C(CSc1ccc2nnc(-c3cccnc3)n2n1)NCc1ccco1` as the compound, how does the “activity change, negative = inhibition” value read?
A: inactive: -17.3%

Q: With `O=C(c1cc(COc2cccc(C(F)(F)F)c2)on1)N1CCC(c2ccccc2)CC1` as the compound, how does the Potency read?
A: inconclusive: 0.522 µM [inhibitor, full curve, poor fit]

Q: Which Potency does the source give for `CCOC(=O)c1oc2nc(CC(C)C)c3c(c2c1N)CCCC3` here?
A: inconclusive: 1.85 µM [inhibitor, partial curve]

Q: Which “activity change, negative = inhibition” value does the source give for `CCOc1ccccc1CN1CCN(C2CCSCC2)CC1CCO` (stereo not given) here?
A: inactive: 43.4%

Q: Which Potency does the source give for `N#CC1=C(N)Oc2n[nH]c(-c3ccc(F)cc3)c2C1c1cccnc1` (stereo not given) here?
A: active: 5.86 µM

Q: With `Cc1ccc(C2=NC(C)(C)N3C2C3c2ccc([N+](=O)[O-])cc2)cc1` (stereo not given) as the compound, how does the Potency read?
A: inconclusive: 18.5 µM [inhibitor, single point]

Q: For `O=C(CNC(=O)N1CC(=O)Nc2ccccc21)NCCc1ccc(Cl)cc1`, which Potency is on record?
A: inconclusive: 18.5 µM [inhibitor, single point]

Q: For `Cc1ccc2nc(SCC(=O)Nc3ccc(C)c([N+](=O)[O-])c3)[nH]c2c1`, which Potency is on record?
A: inconclusive: 4.15 µM [inhibitor, single point]

Q: Which “activity change, negative = inhibition” value does the source give for `Cc1cccc(C(C)C)c1NC(=O)COC(=O)C1CC(=O)N(Cc2ccccc2)C1` (stereo not given) here?
A: inactive: 35.6%

Q: Which Potency does the source give for `O=C(CCC1CCCCC1=O)c1ccccc1` (stereo not given) here?
A: inconclusive: 0.037 µM [inhibitor, full curve, poor fit]

Q: Which Potency does the source give for `Cc1c(OCC(=O)NC(Cc2ccc(Cl)cc2)C(=O)O)ccc2c3c(c(=O)oc12)CCCC3` (stereo not given) here?
A: inconclusive: 0.0522 µM [inhibitor, full curve, poor fit]

Q: Which “activity change, negative = inhibition” value does the source give for `CN1CN=C(N[N+](=O)[O-])N(Cc2ccco2)C1` here?
A: inactive: 0%

Q: Which Potency does the source give for `CCOC(=O)c1cccc(NS(=O)(=O)c2c(C(=O)N3CCCCCC3)c(C)n(C)c2C)c1` here?
A: inconclusive: 18.5 µM [inhibitor, single point]

Q: With `COc1ccccc1-n1c(C)nc2cc(C(=O)NCCN3CCOCC3)ccc21` as the compound, how does the Potency read?
A: inconclusive: 18.5 µM [inhibitor, single point]

Q: With `COc1cc2nc3occc3c(OC)c2cc1OC` as the compound, how does the “activity change, negative = inhibition” value read?
A: inactive: 15.1%

Q: For `CCn1cc(C(=O)O)c(=O)c2cc(OC)ccc21`, which Potency is on record?
A: inconclusive: 18.5 µM [inhibitor, single point]

Q: For `O=C(NCCN1CCCCC1)c1cc(Cl)ccc1Cl`, which Potency is on record?
A: active: 4.65 µM

Q: Which Potency does the source give for `CC(=O)Nc1ccc(-c2cc(-c3ccccc3)nc(-c3ccccc3)n2)cc1` here?
A: active: 1.31 µM

Q: With `C=CCn1cc([N+](=O)[O-])nc1C` as the compound, how does the Potency read?
A: inconclusive: 20.8 µM [inhibitor, partial curve, poor fit]

Q: Which Potency does the source give for `O=C(COc1cc(F)ccc1[N+](=O)[O-])Nc1cc(S(=O)(=O)N2CCCC2)ccc1Cl` here?
A: inconclusive: 14.7 µM [inhibitor, partial curve]

Q: With `COc1ccc(NC2CCCN(C(=O)c3ccc4nc(C)c(C)nc4c3)C2)cc1OC` (stereo not given) as the compound, how does the “activity change, negative = inhibition” value read?
A: inactive: 22.8%

Q: For `O=C(Nc1cccc(C(F)(F)F)c1)c1ccccc1NC(=O)C1CCCCC1`, which “activity change, negative = inhibition” value is on record?
A: inactive: 0%

Q: With `COc1ccc(CCNC(=O)C2CCC(=O)N(CC3CCCCC3)C2)cc1` (stereo not given) as the compound, how does the “activity change, negative = inhibition” value read?
A: inactive: 43.6%

Q: For `Cc1cc(C(=O)Nc2c(C)cccc2C)n(-c2ccccc2)n1`, which Potency is on record?
A: inconclusive: 10.4 µM [inhibitor, partial curve]

Q: With `Cc1cccc(NC(=O)c2ccc(Cl)c(S(=O)(=O)N3CCCCCC3)c2)n1` as the compound, how does the Potency read?
A: inconclusive: 13.1 µM [inhibitor, single point]

Q: With `COC(=O)c1ccc(CO/N=C(\NC(C)=O)c2nonc2NC(C)=O)cc1` as the compound, how does the “activity change, negative = inhibition” value read?
A: inactive: -0.871%

Q: For `CCOc1ccc(-c2nc(CSCC(=O)N3CCN(C(=O)c4ccco4)CC3)c(C)o2)cc1`, which Potency is on record?
A: inconclusive: 10.4 µM [inhibitor, single point]

Q: For `Cc1ccc(NC(=O)[C@@H](NC(=O)c2cccc(S(=O)(=O)N3CCOCC3)c2)C(C)C)cc1C`, which Potency is on record?
A: inconclusive: 13.1 µM [inhibitor, single point]

Q: For `CCn1nc(CC(C)C)cc1C(=O)N1CCCC(Nc2ccc(OC)cc2)C1` (stereo not given), which Potency is on record?
A: inconclusive: 13.1 µM [inhibitor, partial curve, poor fit]

Q: With `CCOC(=O)C1=C(COc2ccc(F)cc2Cl)NC(=O)NC1c1cc(C)ccc1C` (stereo not given) as the compound, how does the Potency read?
A: inconclusive: 0.0117 µM [inhibitor, full curve, poor fit]

Q: With `CN(C)C/C=C/C(O)(c1ccccc1)c1ccccc1` as the compound, how does the Potency read?
A: inconclusive: 0.0029 µM [inhibitor, full curve, poor fit]

Q: For `CC(C)Cc1nc(Nc2ccccc2C#N)c2nnn(Cc3ccccc3)c2n1`, which Potency is on record?
A: inconclusive: 18.5 µM [inhibitor, single point]

Q: For `O=C(CCCCC(=O)NCc1cccs1)NCc1cccs1`, which Potency is on record?
A: inconclusive: 11.7 µM [inhibitor, single point]

Q: For `COc1ccc(-n2c(SCC(=O)Nc3cc(C)on3)nc3c([nH]c4ccccc43)c2=O)cc1`, which Potency is on record?
A: inconclusive: 0.928 µM [inhibitor, partial curve, poor fit]

Q: Which Potency does the source give for `NC(=O)c1cc[n+](CC2=C(C(=O)O)N3C(=O)[C@@H](NC(=O)[C@H](c4ccccc4)S(=O)(=O)[O-])[C@@H]3SC2)cc1` here?
A: inconclusive: 0.907 µM [inhibitor, full curve, poor fit]

Q: With `COc1ccccc1Nc1nc(-c2ccccc2)nc2ccccc12` as the compound, how does the “activity change, negative = inhibition” value read?
A: inactive: -1.19%

Q: Which Potency does the source give for `C[C@]12C(=O)N(c3ccc(Br)cc3)C(=O)N1[C@@H]1c3ccccc3OC[C@@H]1[C@H]2c1ccccc1` here?
A: inconclusive: 18.5 µM [inhibitor, single point]

Q: For `CC(Sc1nc2ccccc2c(=O)n1CC1CCCO1)C(=O)NC(C)c1ccccc1` (stereo not given), which “activity change, negative = inhibition” value is on record?
A: inactive: -28.8%

Q: Which Potency does the source give for `O=C(Cc1ccccc1)N/N=C/c1cc(Br)cs1` here?
A: inconclusive: 10.4 µM [inhibitor, partial curve, poor fit]

Q: For `O=C(Cc1ccc(Cl)cc1)NC1CCCN(Cc2ccccc2F)C1` (stereo not given), which “activity change, negative = inhibition” value is on record?
A: inactive: 69.2%

Q: Which Potency does the source give for `COC(=O)CN1C(=O)[C@H]2[C@@H](c3ccc(C)o3)N3C(=O)CN(Cc4ccccn4)C(=O)[C@@]3(Cc3ccccc3)[C@H]2C1=O` here?
A: inconclusive: 1.04 µM [inhibitor, partial curve]

Q: With `COCCNC(=S)c1ccc(OC)cc1` as the compound, how does the Potency read?
A: inconclusive: 18.5 µM [inhibitor, single point]

Q: Which “activity change, negative = inhibition” value does the source give for `Cc1ccc(-c2nnc3n2N=C(c2ccccc2Br)CS3)cc1` here?
A: inactive: -1.15%

Q: For `Cc1nc2ccccn2c1C(=O)CSc1ccccc1`, which Potency is on record?
A: inconclusive: 1.47 µM [inhibitor, full curve, poor fit]

Q: With `CNCC1(c2ccccc2)CCCC1` as the compound, how does the Potency read?
A: inconclusive: 1.47 µM [inhibitor, full curve, poor fit]

Q: For `COc1cc(NC2c3ccccc3C(=O)N2c2ccc(C)cn2)cc(OC)c1OC` (stereo not given), which “activity change, negative = inhibition” value is on record?
A: inactive: 12.6%

Q: With `CCCNC(=O)c1ccc(CN2CCc3ccccc3C2)cc1` as the compound, how does the “activity change, negative = inhibition” value read?
A: inactive: 249%

Q: For `N#Cc1c(-c2ccccc2)nc(-c2ccccc2)nc1N1CCOCC1`, which Potency is on record?
A: inconclusive: 4.15 µM [inhibitor, single point]

Q: With `O=C(NCc1ccc(F)cc1)c1noc2c1CCCCC2` as the compound, how does the Potency read?
A: inconclusive: 0.294 µM [inhibitor, full curve]
